Measurements from patent US20190390220A1, “Compositions and Methods of Increasing Aphid Resistance in Transgenic Plants” (Boyce Thompson Institute, priority 2018, published 2019).
At least one compound was matched to its structure with a doubt left.

Key:
A. pisum = assay: flavonoid in vitro feeding bioassay on artificial diet, pea aphid; assay type: in vivo, Acyrthosiphon pisum; settings: artificial diet with 0.2% daidzein, 0.01% prunetin or 0.04% formononetin; compared with control diet (DMSO) or flavones; adults
Protocol: A pea aphid colony (A. pisum strain CWR09/18, kindly supplied by Angela Douglas, Cornell University) was reared on faba bean plants (Viciafaba, var. Windsor; Johnny's Selected Seeds, Winslow, Me., USA) which were grown in Metromix 200 (Scotts, Marysville, Ohio, USA) in a growth chamber at the same condition with soybeans in insect rearing room at 25° C. with a 12:12 h day:night cycle (64). A soybean aphid colony (A. glycines), kindly supplied by Gustavo Macintosh at Iowa State University, was reared on soybean plants (G. max var. William 82) that were grown in same soil and conditions as described for the pea aphid colony.
For flavonoid in vitro feeding bioassays, the effects of three isoflavones, daidzein, formononetin and prunetin, as well as two flavones, apigenin and kaempferol on A. glycines and A. pisum adults were tested by rearing 30 insects on an artificial diet (65) in membrane feeding tubes. Adults were fed an artificial diet containing one of the following treatments, 0.01% apigenin, 0.2% daidzein, 0.01% prunetin, 0.04% formononetin or 0.02% kaempferol for 6 days in an insect rearing room (25° C. with a 12:12 h day:night cycle). […] The compound concentrations for diet experiments were based on their measured concentrations in soybean leaves. After 6 days of feeding, the number of surviving aphids was counted.

Trichoplusia ni = settings: constitutively produced in soybean PI 227697 leaves; cited from earlier work
Anticarsia gemmatalis = settings: constitutively produced in soybean PI 227697 leaves; cited from earlier work

Row | Compound | mortality of PA (A. pisum) | performance of Trichoplusia ni larvae (Trichoplusia ni) | performance of Anticarsia gemmatalis larvae (Anticarsia gemmatalis)
1 | COc1ccc(-c2coc3cc(O)ccc3c2=O)cc1 [formononetin] | higher mortality |  | 
2 | C[C@@H]1O[C@@H](OC[C@H]2O[C@@H](Oc3c(-c4ccc(O)c(O)c4)oc4cc(O)cc(O)c4c3=O)[C@H](O)[C@@H](O)[C@@H]2O)[C@H](O)[C@H](O)[C@H]1O [Rutin] |  | negatively affect the performance | negatively affect the performance
